This is one part of the list.
Key:
Assay in all cases: log2 fold change, soluble protein after heating vs DMSO (PISA); higher = thermal stabilisation; K562 cells, 10 uM, 30 min; active = over 0.2 and 3.5 SD of the protein, either way, in both replicates (recomputed)
[1] = compound: CC[C@@H]1C(=O)N(C)c2cnc(Nc3ccc(C(=O)NC4CCN(C)CC4)cc3OC)nc2N1C1CCCC1
How it was run: (§1)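 K562 cells (2×10^6 cells/mL) were treated with 10 μM compound for 30 min, and aliquots were heated for 3 min over 48°C-58°C. Pooled aliquots were extracted in PBS with 0.5% NP-40 at 4°C, and the supernatant after 21,000xg for 90 min was measured by TMTpro 16plex LC-MS/MS with channel sums equalised. Reported thermal stability, relative to control samples and from duplicates, is a log2 fold change.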

By UniProt entry, the sequences of proteins in these tests, tags left out. Where a name states a change or a piece, a line headed by the entry shows the natural chain unless it says otherwise.
UniProt P22234: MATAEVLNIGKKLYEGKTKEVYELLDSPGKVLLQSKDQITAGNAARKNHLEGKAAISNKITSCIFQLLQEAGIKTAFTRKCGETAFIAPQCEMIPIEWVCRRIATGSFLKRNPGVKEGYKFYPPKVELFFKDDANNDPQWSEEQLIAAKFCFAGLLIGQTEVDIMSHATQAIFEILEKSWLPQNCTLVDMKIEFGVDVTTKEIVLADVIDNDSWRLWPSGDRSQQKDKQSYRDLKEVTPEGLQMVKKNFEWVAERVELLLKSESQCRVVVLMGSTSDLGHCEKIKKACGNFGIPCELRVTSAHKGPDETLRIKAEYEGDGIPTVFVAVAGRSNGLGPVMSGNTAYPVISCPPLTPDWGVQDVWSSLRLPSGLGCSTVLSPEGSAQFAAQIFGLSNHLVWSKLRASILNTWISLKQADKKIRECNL
UniProt O43933: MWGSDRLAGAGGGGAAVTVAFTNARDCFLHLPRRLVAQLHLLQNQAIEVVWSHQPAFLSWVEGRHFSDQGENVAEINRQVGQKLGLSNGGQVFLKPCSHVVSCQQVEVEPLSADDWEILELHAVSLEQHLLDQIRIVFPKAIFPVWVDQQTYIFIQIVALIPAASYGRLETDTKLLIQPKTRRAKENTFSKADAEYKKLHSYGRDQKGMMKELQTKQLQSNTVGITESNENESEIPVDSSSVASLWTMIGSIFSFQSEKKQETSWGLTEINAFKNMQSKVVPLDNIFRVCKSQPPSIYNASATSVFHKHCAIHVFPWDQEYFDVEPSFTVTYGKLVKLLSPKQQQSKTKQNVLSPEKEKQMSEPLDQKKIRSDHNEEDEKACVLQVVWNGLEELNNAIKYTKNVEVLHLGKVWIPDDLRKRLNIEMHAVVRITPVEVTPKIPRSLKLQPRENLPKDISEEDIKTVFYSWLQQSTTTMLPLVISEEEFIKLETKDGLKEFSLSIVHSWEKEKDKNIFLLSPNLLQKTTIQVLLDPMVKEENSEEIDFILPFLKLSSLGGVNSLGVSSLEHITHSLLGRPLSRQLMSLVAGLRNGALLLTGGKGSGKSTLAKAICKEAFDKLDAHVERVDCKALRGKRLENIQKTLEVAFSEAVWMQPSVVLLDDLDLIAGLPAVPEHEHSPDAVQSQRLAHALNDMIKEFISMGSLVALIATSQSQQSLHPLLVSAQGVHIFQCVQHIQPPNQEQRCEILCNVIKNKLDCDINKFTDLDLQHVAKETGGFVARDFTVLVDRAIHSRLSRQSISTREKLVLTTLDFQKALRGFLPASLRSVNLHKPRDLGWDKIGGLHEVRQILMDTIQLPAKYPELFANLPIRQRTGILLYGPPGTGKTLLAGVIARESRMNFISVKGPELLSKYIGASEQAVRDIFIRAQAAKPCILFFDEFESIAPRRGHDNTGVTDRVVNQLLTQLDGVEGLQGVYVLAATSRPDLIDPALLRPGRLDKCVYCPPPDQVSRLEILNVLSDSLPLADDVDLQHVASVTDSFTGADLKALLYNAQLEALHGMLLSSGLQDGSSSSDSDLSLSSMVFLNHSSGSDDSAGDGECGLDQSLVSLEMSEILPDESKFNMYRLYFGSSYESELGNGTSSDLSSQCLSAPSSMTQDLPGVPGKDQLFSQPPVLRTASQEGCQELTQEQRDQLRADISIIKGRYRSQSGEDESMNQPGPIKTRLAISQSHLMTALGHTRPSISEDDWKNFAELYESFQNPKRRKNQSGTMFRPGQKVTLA
UniProt Q8WW12: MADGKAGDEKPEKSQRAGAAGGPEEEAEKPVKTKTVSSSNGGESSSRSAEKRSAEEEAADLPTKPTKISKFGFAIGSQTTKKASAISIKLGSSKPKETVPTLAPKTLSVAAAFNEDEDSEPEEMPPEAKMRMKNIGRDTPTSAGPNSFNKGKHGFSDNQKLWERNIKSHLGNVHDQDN
UniProt O00764: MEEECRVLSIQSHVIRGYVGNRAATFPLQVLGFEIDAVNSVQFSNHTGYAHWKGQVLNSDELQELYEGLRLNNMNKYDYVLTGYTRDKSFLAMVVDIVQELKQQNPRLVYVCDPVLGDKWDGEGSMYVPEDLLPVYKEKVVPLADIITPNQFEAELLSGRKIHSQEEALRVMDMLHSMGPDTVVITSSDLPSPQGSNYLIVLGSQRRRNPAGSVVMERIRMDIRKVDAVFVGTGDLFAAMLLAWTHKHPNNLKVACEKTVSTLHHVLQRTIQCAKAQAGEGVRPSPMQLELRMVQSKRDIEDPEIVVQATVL
UniProt Q13371: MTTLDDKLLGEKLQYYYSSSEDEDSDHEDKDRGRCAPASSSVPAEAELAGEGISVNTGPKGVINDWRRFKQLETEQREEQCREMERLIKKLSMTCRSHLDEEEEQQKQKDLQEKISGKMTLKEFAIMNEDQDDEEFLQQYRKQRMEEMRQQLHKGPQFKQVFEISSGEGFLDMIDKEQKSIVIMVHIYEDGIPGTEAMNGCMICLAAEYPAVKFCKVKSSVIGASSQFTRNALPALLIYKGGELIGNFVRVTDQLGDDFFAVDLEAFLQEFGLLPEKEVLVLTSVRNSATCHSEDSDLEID
UniProt Q8TE04: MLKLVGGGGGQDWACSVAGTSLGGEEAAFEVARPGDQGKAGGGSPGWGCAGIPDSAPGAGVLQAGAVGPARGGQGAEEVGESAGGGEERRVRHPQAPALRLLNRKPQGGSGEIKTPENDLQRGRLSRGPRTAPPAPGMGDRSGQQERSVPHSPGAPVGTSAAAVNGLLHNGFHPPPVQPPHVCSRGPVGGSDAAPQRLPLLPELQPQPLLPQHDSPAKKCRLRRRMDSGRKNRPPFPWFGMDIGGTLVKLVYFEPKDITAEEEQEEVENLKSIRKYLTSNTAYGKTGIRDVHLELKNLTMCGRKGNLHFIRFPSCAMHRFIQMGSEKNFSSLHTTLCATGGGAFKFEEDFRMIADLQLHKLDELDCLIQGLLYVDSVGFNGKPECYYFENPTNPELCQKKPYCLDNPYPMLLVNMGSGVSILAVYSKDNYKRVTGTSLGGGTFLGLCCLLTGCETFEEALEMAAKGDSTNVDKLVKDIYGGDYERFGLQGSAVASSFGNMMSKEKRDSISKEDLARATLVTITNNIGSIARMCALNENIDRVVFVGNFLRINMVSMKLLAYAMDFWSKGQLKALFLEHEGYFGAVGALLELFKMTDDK
UniProt O75459: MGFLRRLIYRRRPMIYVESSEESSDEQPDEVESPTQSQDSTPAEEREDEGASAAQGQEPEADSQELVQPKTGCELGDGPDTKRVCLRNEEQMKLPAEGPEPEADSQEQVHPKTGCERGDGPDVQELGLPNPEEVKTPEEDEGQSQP
UniProt Q9BYG5: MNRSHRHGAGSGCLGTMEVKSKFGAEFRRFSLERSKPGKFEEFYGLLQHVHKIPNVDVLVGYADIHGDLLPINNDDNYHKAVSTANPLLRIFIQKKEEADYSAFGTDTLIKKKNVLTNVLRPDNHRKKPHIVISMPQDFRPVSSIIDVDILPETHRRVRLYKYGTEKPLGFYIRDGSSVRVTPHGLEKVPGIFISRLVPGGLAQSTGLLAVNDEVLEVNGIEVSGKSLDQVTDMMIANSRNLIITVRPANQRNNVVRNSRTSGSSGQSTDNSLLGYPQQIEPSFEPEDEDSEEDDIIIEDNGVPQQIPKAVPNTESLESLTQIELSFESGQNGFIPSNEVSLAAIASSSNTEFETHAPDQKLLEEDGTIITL
UniProt O14737: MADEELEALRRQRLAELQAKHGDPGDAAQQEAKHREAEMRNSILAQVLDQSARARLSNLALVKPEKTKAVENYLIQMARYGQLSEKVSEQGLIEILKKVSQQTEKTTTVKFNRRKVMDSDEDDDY
UniProt Q7L3T8: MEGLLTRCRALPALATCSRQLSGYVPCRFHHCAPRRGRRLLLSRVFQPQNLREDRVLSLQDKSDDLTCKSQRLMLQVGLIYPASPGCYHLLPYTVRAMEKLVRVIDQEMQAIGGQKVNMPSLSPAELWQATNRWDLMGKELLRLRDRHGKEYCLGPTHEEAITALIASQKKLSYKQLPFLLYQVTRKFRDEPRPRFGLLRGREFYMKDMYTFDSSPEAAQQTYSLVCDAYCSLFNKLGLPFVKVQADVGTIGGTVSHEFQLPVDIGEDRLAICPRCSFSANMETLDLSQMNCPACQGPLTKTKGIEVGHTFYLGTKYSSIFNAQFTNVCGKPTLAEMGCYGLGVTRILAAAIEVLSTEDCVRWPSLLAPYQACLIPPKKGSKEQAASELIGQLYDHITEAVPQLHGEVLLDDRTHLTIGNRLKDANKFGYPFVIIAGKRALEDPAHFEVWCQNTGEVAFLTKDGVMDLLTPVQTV
UniProt Q15154: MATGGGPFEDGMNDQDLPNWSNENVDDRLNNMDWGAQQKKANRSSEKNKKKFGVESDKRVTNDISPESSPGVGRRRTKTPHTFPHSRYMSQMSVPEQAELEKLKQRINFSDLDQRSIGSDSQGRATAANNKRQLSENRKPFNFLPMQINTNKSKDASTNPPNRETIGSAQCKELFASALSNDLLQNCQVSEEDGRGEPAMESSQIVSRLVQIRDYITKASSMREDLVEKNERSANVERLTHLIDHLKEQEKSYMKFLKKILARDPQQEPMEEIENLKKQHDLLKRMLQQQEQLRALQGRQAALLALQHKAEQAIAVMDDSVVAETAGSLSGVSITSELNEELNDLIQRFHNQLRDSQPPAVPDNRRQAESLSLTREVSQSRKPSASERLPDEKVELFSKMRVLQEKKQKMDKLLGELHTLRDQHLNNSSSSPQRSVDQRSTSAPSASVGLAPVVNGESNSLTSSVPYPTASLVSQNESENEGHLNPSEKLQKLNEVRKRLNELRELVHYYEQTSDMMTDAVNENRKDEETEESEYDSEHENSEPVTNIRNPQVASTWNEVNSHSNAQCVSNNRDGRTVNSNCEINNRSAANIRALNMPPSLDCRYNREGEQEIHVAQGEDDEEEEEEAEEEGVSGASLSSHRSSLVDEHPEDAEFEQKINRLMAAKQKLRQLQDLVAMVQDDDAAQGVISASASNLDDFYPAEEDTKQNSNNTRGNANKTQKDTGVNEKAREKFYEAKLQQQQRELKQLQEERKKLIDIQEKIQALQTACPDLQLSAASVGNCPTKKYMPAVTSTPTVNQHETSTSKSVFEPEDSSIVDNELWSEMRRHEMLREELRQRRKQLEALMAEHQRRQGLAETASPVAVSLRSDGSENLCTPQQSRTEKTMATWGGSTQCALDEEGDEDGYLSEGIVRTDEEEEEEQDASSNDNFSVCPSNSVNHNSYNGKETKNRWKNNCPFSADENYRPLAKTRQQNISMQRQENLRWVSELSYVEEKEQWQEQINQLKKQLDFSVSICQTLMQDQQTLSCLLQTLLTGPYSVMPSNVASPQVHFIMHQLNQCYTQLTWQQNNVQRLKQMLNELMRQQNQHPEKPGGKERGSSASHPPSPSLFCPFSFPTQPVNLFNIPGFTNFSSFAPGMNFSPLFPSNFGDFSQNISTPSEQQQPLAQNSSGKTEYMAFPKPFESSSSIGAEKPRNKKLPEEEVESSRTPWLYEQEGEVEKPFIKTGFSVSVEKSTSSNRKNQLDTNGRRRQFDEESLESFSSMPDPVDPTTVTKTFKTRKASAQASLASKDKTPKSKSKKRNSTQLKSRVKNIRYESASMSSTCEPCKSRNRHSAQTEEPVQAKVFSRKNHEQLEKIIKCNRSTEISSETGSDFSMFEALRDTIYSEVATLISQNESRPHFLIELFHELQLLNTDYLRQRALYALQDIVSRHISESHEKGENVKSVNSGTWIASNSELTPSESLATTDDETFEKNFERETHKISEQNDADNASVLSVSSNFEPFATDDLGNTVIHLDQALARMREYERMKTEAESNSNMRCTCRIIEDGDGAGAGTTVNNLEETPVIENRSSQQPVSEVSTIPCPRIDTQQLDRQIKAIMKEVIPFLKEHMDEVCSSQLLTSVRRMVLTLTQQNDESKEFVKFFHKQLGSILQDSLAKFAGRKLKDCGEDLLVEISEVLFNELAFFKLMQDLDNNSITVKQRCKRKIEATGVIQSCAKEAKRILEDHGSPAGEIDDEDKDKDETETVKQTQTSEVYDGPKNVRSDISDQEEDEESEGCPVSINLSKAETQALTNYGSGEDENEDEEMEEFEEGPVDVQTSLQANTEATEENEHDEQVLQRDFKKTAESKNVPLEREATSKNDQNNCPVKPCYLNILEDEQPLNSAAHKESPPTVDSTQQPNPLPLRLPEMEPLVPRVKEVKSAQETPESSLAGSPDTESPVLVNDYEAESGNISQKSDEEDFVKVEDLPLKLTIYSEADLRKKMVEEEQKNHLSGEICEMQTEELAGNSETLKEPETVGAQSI
UniProt P12004, whole entry, looked up: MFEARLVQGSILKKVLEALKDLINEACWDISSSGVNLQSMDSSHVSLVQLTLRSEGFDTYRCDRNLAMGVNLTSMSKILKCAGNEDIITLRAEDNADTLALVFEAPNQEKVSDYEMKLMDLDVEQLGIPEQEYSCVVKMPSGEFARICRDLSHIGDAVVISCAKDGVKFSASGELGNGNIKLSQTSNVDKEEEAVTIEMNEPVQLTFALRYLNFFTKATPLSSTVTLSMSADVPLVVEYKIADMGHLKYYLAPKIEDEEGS

[2] = compound: CC[C@@H]1C(=O)N(C)c2cnc(Nc3ccc(C(=O)N[C@H]4CC[C@H](N5CCN(CC6CC6)CC5)CC4)cc3OC)nc2N1C(C)C [volasertib]
How it was run: as §1

[3] = compound: CC[C@H](C)N1C=C(C2=C(C=C(C=C21)C3=CN=C(C=C3)N4CCNCC4)C(=O)NCC5=C(C=C(NC5=O)C)C)C
How it was run: as §1

[4] = compound: CC[C@H](C)[C@@H](C(=O)N[C@@H]([C@@H](C)O)C(=O)N[C@@H](CC(C)C)C(=O)[C@]1(CO1)C)NC(=O)[C@H]([C@@H](C)CC)N(C)C(=O)C [epoxomicin]
How it was run: as §1

[5] = compound: CCn1c(C(=O)N(C2CC2)C2CC2)cc2c3c(ncn3C)c(Nc3cc(C)n(C)n3)nc21
How it was run: as §1

[6] = compound: CCn1cc(-c2ccnc3[nH]c(-c4cccc(CN(C)C)c4)cc23)c(-c2ccc(NC(=O)N(C)C)cc2)n1
How it was run: as §1

[7] = compound: CN(C)CC(=O)Nc1ccc2[nH]c(=O)c3ccccc3c2c1
How it was run: as §1

[8] = compound: CN(CCOC1=CC=C(C=C1)C[C@H]2C(=O)NC(=O)S2)C3=CC=CC=N3 (racemic) [rosiglitazone]
How it was run: as §1

[9] = compound: CN1C2=C(C3=C1C(=O)N(N=C3)CC4=CC(=CC=C4)N)SC(=C2)S(=O)C
How it was run: as §1

[10] = compound: CN1CCC(CNc2ccc3ncc(-c4cccc(OC(F)(F)F)c4)n3n2)CC1
How it was run: as §1

Measured: log2 fold change

PAICS (UniProt P22234)
inactive: [1] -0.019 | [2] 0.103 | [3] -0.077 | [4] -0.004 | [5] -0.001 | [6] -0.014 | [7] -0.03 | [8] 0 | [9] -0.053 | [10] -0.005

PEX1 (UniProt O43933)
inactive: [1] 0.014 | [2] -0.022 | [3] -0.006 | [4] 0.016 | [5] -0.04 | [6] -0.035 | [7] -0.018 | [8] 0.036 | [9] -0.029 | [10] 0.054

PDPR (UniProt Q8NCN5)
inactive: [1] 0.018 | [2] -0.076 | [3] -0.004 | [4] 0.015 | [5] -0.052 | [6] -0.083 | [7] 0.016 | [8] 0.009 | [9] -0.067 | [10] 0.017

PDCD10 (UniProt Q9BUL8)
inactive: [1] 0.015 | [2] -0.135 | [3] 0.024 | [4] 0.025 | [5] 0.023 | [6] -0.024 | [7] -0.005 | [8] 0.035 | [9] -0.075 | [10] -0.103

PDK1 (UniProt Q15118)
inactive: [1] 0.076 | [2] 0.202 | [3] -0.024 | [4] 0.005 | [5] -0.106 | [6] -0.078 | [7] 0.038 | [8] 0.196 | [9] -0.032 | [10] 0.099

PCNP (UniProt Q8WW12)
inactive: [1] 0.028 | [2] 0.094 | [3] -0.024 | [4] 0.002 | [5] 0.03 | [6] 0.029 | [7] -0.055 | [8] -0.009 | [9] -0.014 | [10] -0.007

PDZD11 isoform 2 (UniProt Q5EBL8)
inactive: [1] 0.034 | [2] -0.142 | [3] -0.003 | [4] 0.109 | [5] -0.155 | [6] 0.004 | [7] -0.077 | [8] -0.013 | [9] -0.062 | [10] 0.001

PAXX (UniProt Q9BUH6)
inactive: [1] 0.023 | [2] 0.05 | [3] -0.057 | [4] -0.024 | [5] 0.003 | [6] -0.024 | [7] -0.024 | [8] 0.026 | [9] -0.068 | [10] -0.045

PDXK (UniProt O00764)
inactive: [1] -0.138 | [2] -0.03 | [3] -0.029 | [4] 0.06 | [5] -0.005 | [6] -0.019 | [7] -0.015 | [8] -0.026 | [9] -0.076 | [10] -0.014

PDCL (UniProt Q13371)
inactive: [1] -0.117 | [2] -0.123 | [3] 0.062 | [4] 0.199 | [5] -0.046 | [6] -0.002 | [7] -0.035 | [8] -0.086 | [9] 0 | [10] -0.066

PES1 (UniProt O00541)
inactive: [1] 0.04 | [2] -0.048 | [3] 0.077 | [4] -0.087 | [5] -0.16 | [6] -0.035 | [7] 0.024 | [8] -0.06 | [9] 0.223 | [10] 0.176

PAGE5 (UniProt Q96GU1)
inactive: [1] 0.128 | [2] 0.097 | [3] -0.022 | [4] 0.297 | [5] -0.077 | [6] 0.079 | [7] 0.354 | [8] 0.012 | [9] 0.002 | [10] 0.15

PDIA4 (UniProt P13667)
inactive: [1] 0.003 | [2] -0.004 | [3] 0.027 | [4] 0.022 | [5] 0.053 | [6] 0.003 | [7] -0.011 | [8] -0.006 | [9] 0.005 | [10] 0.111

PANK1 (UniProt Q8TE04)
inactive: [1] 0.12 | [2] -0.093 | [3] 0.072 | [4] 0.082 | [5] 0.035 | [6] -0.016 | [7] 0.047 | [8] 0.048 | [9] -0.187 | [10] -0.085

PALMD (UniProt Q9NP74)
inactive: [1] -0.07 | [2] -0.043 | [3] -0.034 | [4] -0.03 | [5] -0.023 | [6] -0.022 | [7] 0.033 | [8] -0.018 | [9] 0.01 | [10] 0.067

PDAP1 (UniProt Q13442)
inactive: [1] -0.053 | [2] 0.077 | [3] -0.061 | [4] 0.042 | [5] 0.016 | [6] 0.032 | [7] -0.046 | [8] 0.003 | [9] -0.054 | [10] -0.009

PCBD1 (UniProt P61457)
inactive: [1] 0.057 | [2] 0.148 | [3] -0.032 | [4] -0.012 | [5] -0.047 | [6] 0.026 | [7] -0.05 | [8] 0.001 | [9] 0.041 | [10] -0.105

PAGE1 (UniProt O75459)
inactive: [1] -0.025 | [2] 0.163 | [3] -0.041 | [4] 0.058 | [5] 0.046 | [6] 0.019 | [7] -0.058 | [8] -0.016 | [9] -0.002 | [10] -0.017

PDLIM4 (UniProt P50479)
inactive: [1] -0.019 | [2] -0.027 | [3] -0.007 | [4] 0.038 | [5] -0.053 | [6] 0.007 | [7] -0.007 | [8] 0.022 | [9] -0.034 | [10] -0.026

PAK3 isoform 3 (UniProt O75914)
inactive: [1] -0.03 | [2] 0.006 | [3] -0.017 | [4] 0.056 | [5] 0.032 | [6] -0.083 | [7] 0.039 | [8] 0.016 | [9] -0.078 | [10] 0.031

PARD6B (UniProt Q9BYG5)
inactive: [1] 0.016 | [2] 0.023 | [3] -0.01 | [4] 0.366 | [5] -0.158 | [6] 0.001 | [7] 0.102 | [8] 0.047 | [9] 0.048 | [10] 0.001

PDCD5 (UniProt O14737)
inactive: [1] 0.003 | [2] 0.068 | [3] -0.036 | [4] 0.056 | [5] 0.028 | [6] 0.035 | [7] -0.01 | [8] 0.029 | [9] -0.044 | [10] 0.015

PBXIP1 (UniProt Q96AQ6)
inactive: [1] 0.02 | [2] -0.025 | [3] 0.015 | [4] 0.022 | [5] -0.011 | [6] 0.021 | [7] -0.046 | [8] 0.021 | [9] -0.016 | [10] 0.012

PDIA3 (UniProt H7BZJ3)
inactive: [1] -0.006 | [2] 0.018 | [3] 0.003 | [4] 0 | [5] 0.046 | [6] -0.234 | [7] -0.102 | [8] -0.049 | [9] 0.129 | [10] 0.073

PCYT2 isoform 3 (UniProt Q99447)
inactive: [1] -0.004 | [2] -0.025 | [3] -0.017 | [4] 0.053 | [5] -0.028 | [6] -0.035 | [7] -0.008 | [8] 0.008 | [9] -0.068 | [10] 0.118

PCYOX1L (UniProt Q8NBM8)
inactive: [1] -0.051 | [2] 0.037 | [3] -0.03 | [4] -0.029 | [5] -0.005 | [6] -0.022 | [7] -0.027 | [8] 0.003 | [9] -0.052 | [10] 0.117

PARS2 (UniProt Q7L3T8)
inactive: [1] 0.057 | [2] 0.104 | [3] 0 | [4] -0.026 | [5] -0.019 | [6] -0.037 | [7] -0.041 | [8] -0.043 | [9] 0.015 | [10] 0.097

PCM1 isoform 5 (UniProt Q15154)
inactive: [1] 0.016 | [2] -0.023 | [3] 0.007 | [4] -0.1 | [5] 0.031 | [6] 0.077 | [7] -0.069 | [8] -0.098 | [9] 0.227 | [10] -0.026

PCNA (UniProt P12004)
inactive: [1] -0.016 | [2] 0.003 | [3] -0.016 | [4] 0.025 | [5] -0.012 | [6] 0.009 | [7] -0.011 | [8] 0.001 | [9] -0.028 | [10] -0.037

From the supplement of paper PMC10849652
